For data set [1], the system named is TnpAS911R. Put plainly: competition with a labelled probe. Conditions: 12.5-50 uM IR end-2 reduces binding to one-end substrate (AFM).
Data set [2] relates to TnpA3X. Nature of the data set: competition with a labelled probe. Conditions: 12.5-50 uM IR end-2 reduces binding to one-end substrate (AFM).
The subject of data set [3] is TnpA wild type (TnpAWT). Nature of the data set: competition with a labelled probe. The note with it: 12.5-50 uM IR end-2 reduces binding to one-end substrate (AFM).
Data set [4] deals with TnpA wild type (TnpAWT). Put plainly: AFM force spectroscopy. Conditions: 5' hexynyl on strand 1.

The exact form of at least one protein or probe is not confirmed. For some of these results: No signal at the amounts used counts as a negative.

This note sets out measurements from article doi:10.1101/2022.07.18.500257.

On to “CCGGCCGCATGCAGTGGGGGTACCGCCAGCATTTCGGAAAAAAACCACGCTAAGAAAATCAGAGTTAAAA (double strand) [IR end-2 (blocking DNA)]”, for which the binding result in data set [1], in data set [2] and in data set [3] was “binds” each time.

Turning to “TTTTTTTTTTTTTTTTTTTTCGCGCGCCATGCAATGACAACCGGAAACATGCGATATCGGGCCCAATTCGCCCTATCCTCTAGAGTCGAC / GTCGACTCTAGAGGATAGGGCGAATTGGGCCCGATATCGCATGTTTCCGGTTGTCATTGCATGGCGCGCG [nonspecific DNA (a/b)]”, the binding result in data set [4] is “no binding”.
